Laboratory results as given in publication PMC8011160.
These are yes or no findings as the source states them, for the method shown.

The chains behind the UniProt entries cited, without tags or fusion partners. Residues count along the entry.
UniProt P04985, residues 27-747: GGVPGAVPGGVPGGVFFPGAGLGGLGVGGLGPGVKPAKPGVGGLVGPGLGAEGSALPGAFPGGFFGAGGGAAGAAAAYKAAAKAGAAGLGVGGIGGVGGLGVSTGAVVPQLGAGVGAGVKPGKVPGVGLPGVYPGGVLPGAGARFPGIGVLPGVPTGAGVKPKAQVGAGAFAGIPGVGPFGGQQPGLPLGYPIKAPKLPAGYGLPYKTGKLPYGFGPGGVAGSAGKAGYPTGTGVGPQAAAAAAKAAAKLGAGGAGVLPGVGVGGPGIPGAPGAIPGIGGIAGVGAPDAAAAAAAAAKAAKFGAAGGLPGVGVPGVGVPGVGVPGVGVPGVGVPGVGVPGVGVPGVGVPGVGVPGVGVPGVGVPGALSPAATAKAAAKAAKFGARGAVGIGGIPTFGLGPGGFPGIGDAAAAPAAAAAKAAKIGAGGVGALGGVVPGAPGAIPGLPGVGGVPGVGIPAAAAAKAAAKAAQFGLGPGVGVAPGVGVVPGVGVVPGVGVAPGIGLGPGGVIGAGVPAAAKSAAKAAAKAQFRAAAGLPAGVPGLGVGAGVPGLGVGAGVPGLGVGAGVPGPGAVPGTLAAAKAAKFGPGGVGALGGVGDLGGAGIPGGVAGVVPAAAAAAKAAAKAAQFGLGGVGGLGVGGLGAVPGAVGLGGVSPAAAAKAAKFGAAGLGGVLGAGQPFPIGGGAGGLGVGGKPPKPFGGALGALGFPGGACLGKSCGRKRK
UniProt P02769, residues 25-607: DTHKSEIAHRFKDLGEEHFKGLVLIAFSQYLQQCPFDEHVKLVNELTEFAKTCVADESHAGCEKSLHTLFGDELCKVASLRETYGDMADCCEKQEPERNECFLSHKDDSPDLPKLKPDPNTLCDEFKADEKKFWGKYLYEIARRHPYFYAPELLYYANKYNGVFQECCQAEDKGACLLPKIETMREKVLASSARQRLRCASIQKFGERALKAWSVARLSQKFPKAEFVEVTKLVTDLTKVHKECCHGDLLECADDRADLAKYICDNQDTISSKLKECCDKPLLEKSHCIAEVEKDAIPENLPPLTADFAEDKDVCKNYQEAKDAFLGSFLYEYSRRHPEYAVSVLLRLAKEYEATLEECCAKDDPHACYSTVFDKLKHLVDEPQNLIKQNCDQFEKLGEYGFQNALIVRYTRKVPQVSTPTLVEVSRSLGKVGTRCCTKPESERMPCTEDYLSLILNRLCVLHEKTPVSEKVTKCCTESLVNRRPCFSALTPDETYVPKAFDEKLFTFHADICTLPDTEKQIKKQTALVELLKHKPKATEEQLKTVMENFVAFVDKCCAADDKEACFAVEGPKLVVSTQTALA

Target: elastin (purified from bovine neck ligament) (bovine) (UniProt P04985)
Test: co-sedimentation; 0.5, 1, 5 and 10 mg insoluble elastin mixed with 40 μg protein in 400 μl PBS, 60 min at 4 °C; centrifuged 20 min at 18,000 x g; supernatant (unbound) and washed pellet (bound) on 12% SDS-PAGE; both purified

Bovine serum albumin (BSA) (from UniProt P02769 25-607)
binding: no binding (tested: 40 μg in 400 μl)
